{
  "source": "patent US5880160A",
  "about": "(priority 1995, dated 1999)",
  "tested_on": "MCF-7 (human breast)",
  "test": "cells",
  "format": "cell-based",
  "details": "MCF7, read-out: IC50 MCF-7 (human breast)",
  "data": [
    {"smiles": "COc1cc2c(c(OC)c1OC)-c1ccc(OC)c(=O)cc1[C@@H](NC(C)=O)CC2", "note": "[Colchicine, colchicine, reference compound]", "values": [
      {"measurement": "IC50", "result": "4.4 ± 0.3", "unit": "nM"}
    ]}
  ]
}
